Experimental data published in PubChem BioAssay AID1508600 (Functional Genomics Laboratory (NCATS/FGL), 2020).
About 3,700 (7%) of roughly 53,000 sequences were called active.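 Rule for the calls: active = gene knockdowns whose robust z-score for IL-1 alpha signal is at least 2 or at most -2, so actives lie on both sides; inactive = the rest.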 This is one part of the list.

test: Components of the Cytosolic LPS Sensing Pathway: Gene Identification via Genome-wide siRNA Screen; conditions: RAW264.7 macrophages, IL-1a HTRF, actives lie on both sides, screened at 100 nM (by protocol), cells primed 5 h with Pam3CSK4 first;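 note: robust z of the log signal after scaling to non-targeting control siRNA wells of the plate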
Summary of the method: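 Knockdown: 100 nM siRNA, 48h, RAW264.7. Stimulation: Pam3CSK4 5 h, then LipidA via TransIT-TKO 24 h. Output: supernatant IL-1a HTRF, negative-control-normalized, log robust z-score; viability by CellTiter-Glo.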

| Sequence | z-score |
| --- | --- |
| GGCCGUACCUUUAACUGGATT against Tex101 | inactive: 0.261 |
| GGUUGGAACAAAAUCUUUATT against Nipa2 | inactive: 0.358 |
| GGAUGACUACAAAUGCAAATT against E230015B07Rik | inactive: -0.155 |
| GGGCAUUGGCAAGAAAAAGTT against Ahdc1 | inactive: -0.543 |
| GGAAGGAUUCUGGAAACAGTT against 2210409E12Rik | active: -2.1 |
| GGACUUAAGGCCCUUUUUGTT against Elovl3 | inactive: -1.22 |
| GCUCACAAGGUACCUAUUATT against Frmd3 | inactive: -1.73 |
| GGUCAAGAAGAGUAUAGUGTT against Hras | inactive: -1.33 |
| GGAAUUUUGGUAGGUUUUATT against Tlcd4 | inactive: 1.36 |
| CAUUCGUUGAAGAAAGUGATT against N4bp2 | inactive: -0.92 |
| GGAAGUGAAGAGAUCCUUATT against Olfr148 | inactive: 0.86 |
| GGUUUAAGCUUUUUGUGGATT against D130079A08Rik | inactive: 0.0133 |
| GGAAAAUCACUUCAUUCACTT against Ltk | inactive: 0.893 |
| GGUGAUGCUAAAUUCUGAUTT against Mpc2 | inactive: -1.92 |
| GCGGUGGUUAUCCUAGAAATT against Hivep2 | inactive: -1.34 |
| GGUUCCUAGAUAAGAUUCGTT against Itm2b | inactive: 0.0844 |
| GGAAGAAAGCAGAACAAGGTT against Armcx3 | inactive: -0.98 |
| GGACUACCAAUACGAACUGTT against Il23a | active: 2.22 |
| GGAAAGGACAAGAAAAUUUTT against Strn | active: -2.03 |
| GGAAUAAGGAGCUGAAGAATT against Olfr63 | inactive: 0.627 |
| GGAACAUGAAGUGGAAAAATT against Vps33a | inactive: -0.632 |
| GGAGAUCACCUACGACAUGTT against Lgals8 | inactive: 0.446 |

Some values from the results shown.
GGACUACCAAUACGAACUGTT against Il23a | z-score: active: 2.22
CAUUCGUUGAAGAAAGUGATT against N4bp2 | z-score: inactive: -0.92

(listing goes on)

| Sequence | z-score |
| --- | --- |
| GGGCAUGCAUAGCUACUAUTT against Tmprss6 | inactive: 1.82 |
| GGCUUAUCAGUCCAUGAAGTT against Dhrs11 | inactive: -0.601 |
| GGAACCUAACCUAAGUAGUTT against B530045E10Rik | inactive: -1.26 |
| GGAGGUGAUGAUAAUCAAUTT against Trmt61a | inactive: 0.497 |
| GGGAAUCUUCUUUCAGACCTT against Cphx1 | inactive: 0.149 |
| GGAUGUGCCAUUGAAGAUCTT against Atg4c | active: 2.07 |
| GCUGCUAGCAAAAAGAACUTT against Yaf2 | active: 2.24 |
| GGGCUGGGUCUUCAUAAUUTT against 6330549D23Rik | inactive: 1.14 |
| GGUGAGGAUUUAUUUGAAGTT against Fkbp5 | inactive: -0.409 |
| CCAGCCAAGACUAAGAAACTT against Mbd1 | inactive: -0.424 |
| GCUGUUGGUCUGAUAGCUUTT against Hadhb | inactive: 0.378 |
| CGAUAGACCAAAUUUUAUGTT against Trim37 | inactive: 0.032 |
| AGAAUCUUUAAAGGAAGUCTT against Olfr325 | inactive: 0.229 |
| GGGUAUUGAGUUCAAAAUUTT against Dld | inactive: 0.346 |
| GGAUGACCAUGAUCACAAATT against Mtus2 | inactive: -0.295 |
| CGGGACCUUGUUGAUAACUTT against Tmem130 | inactive: 0.811 |
| GGAAUAUUAUCUGAUCUGUTT against Abca4 | inactive: 1.04 |
| GGAGACAAUAUGGGACAUGTT against Ddb2 | inactive: 0.607 |
| GCAUAAUUUCAGUGGCAAATT against Fbxw14 | inactive: 1.13 |
| GGUGCAAAGCACAGAUAUATT against Mob1b | inactive: 0.776 |
| GGAUCAACAGUCAAUUGUGTT against Tax1bp1 | active: -2.16 |
| CCAUUGUUUGACUCAAAACTT against Gjc3 | inactive: 0.62 |

| Sequence | z-score |
| --- | --- |
| GGAAAGAAGAAACAUUCCUTT against Socs5 | inactive: 0.495 |
| GGGUUUUUGAUGAUGAUUCTT against Htatsf1 | inactive: -0.66 |
| CGGGAUCUUCACUCUCUGATT against Timd4 | inactive: 0.11 |
| GGAGAUGGAUGAUAUGGAGTT against Ifi30 | inactive: 0.00856 |
| GCCUUUUGACGCAAAAACATT against Myh8 | inactive: -0.833 |
| CGUUGUUUAUUCCAAAGAGTT against Runx1 | inactive: 0.44 |
| GGAGAAAGCCUUCCAAUUUTT against Kel | inactive: -0.273 |
| GGUUAAAGUCUGUGGAUUUTT against Aff4 | inactive: 1.56 |
| GGGAAAGGAUAAAGAUUUUTT against Hmgcs1 | inactive: -0.396 |
| GGGAUGCCGAAGACAAUAGTT against Vmn1r197 | inactive: -0.345 |
| GGAUAAAAGCAUUUGAGUCTT against Acp1 | inactive: 0.694 |
| GGAUCUGGAGAAGAUGUUCTT against Efhd1 | inactive: -0.512 |
| GGCGUGUUGGAACAAGGAUTT against Cops8 | inactive: 0.379 |
| CGACUGCCCAUAAGAAAACTT against Csl | inactive: -0.975 |
| GGAGUUGUCGCACUACAUGTT against Bicd2 | inactive: 0.449 |
| GGUCAUAGCCCUCUACAUATT against Rgr | inactive: -0.914 |
| GGCACACUUUCUACCUAAUTT against Tmem26 | inactive: 0.606 |
| GGAGGAGCUCCAUUUAUGCTT against Zfp65 | inactive: 0.859 |
| GGCCAACCUUGGUCUUAUGTT against Gpr146 | inactive: -0.787 |
| CCGUGUACUUUGGAUCUGGTT against Cox7c | inactive: 0.622 |
| CGAUGAGAUGCGUAUUGAGTT against Card11 | inactive: 0.601 |
| CGGAUCUUAUCAGAACAUGTT against Zfp638 | inactive: 0.201 |

| Sequence | z-score |
| --- | --- |
| GCAACUCAAUCCAUGCAAATT against Senp8 | inactive: 0.622 |
| GGUUAUGCUGGAGAUAAAUTT against Lama1 | inactive: -1.5 |
| GGCUGUGAUCUCCUGGCUUTT against Rnft2 | inactive: -1.46 |
| GCAUACUACAUGAUGUGGUTT against Spag7 | inactive: 0.77 |
| GGAUACCAUAGCAGAUCCATT against Fahd2a | inactive: 0.289 |
| GGCUGUGAUUAGAGGAUGATT against Dnajc5 | inactive: 0.333 |
| CCUCAACUUUUCAAAAGACTT against Dlx5 | inactive: -0.466 |
| GGAGCAGAUAAUGUACAUATT against Cep112 | active: 2.32 |
| CCUCGGAUAACGAAGCUAATT against Hoxc10 | inactive: -1.31 |
| GGCAGCUGGAAAGACAAAATT against Snca | inactive: 1.19 |
| GGAGAAGUAAAACUCGAAGTT against Rwdd2a | inactive: 0.276 |
| CCAACGCGAACGAGAACUATT against C1qb | inactive: -0.0813 |
| GGCUUUAACCGCAUCAUAGTT against G6pd2 | inactive: -0.785 |
| GCGGGCUUAUAGGAAGAAGTT against Prss28 | inactive: 0.709 |
| GGGUUUUCUUACAAAGAACTT against Hoxb2 | inactive: -0.681 |
| GGAGUUGUGACUACGGAGATT against Zfp952 | inactive: 0.619 |
| GGAAGGAGAAAAUGGAACUTT against Il12rb2 | inactive: -0.574 |
| AUUCUGCAAGUGCCGUAUGTT against Fcrlb | inactive: 0.115 |
| GGCUAAAGAAUGUUAUCAGTT against Ttc12 | inactive: 0.302 |
| CGUAAUCUUCAUCUUAGUATT against Olfr613 | inactive: 0.601 |
| GGAAGUCAGUGAAAAAAUUTT against Csn1s2a | inactive: -0.437 |
| GGAUGCCAAUUACUUUCUATT against Chst9 | inactive: 0.475 |

| Sequence | z-score |
| --- | --- |
| GCUUGUUAAAAACGAAUUCTT against Ccer1 | inactive: 0.688 |
| GGUAUUUAGCCUUGCAUACTT against Sfswap | inactive: 0.5 |
| GCCCUCUGAUAUGUUGAACTT against Lrr1 | inactive: 0.559 |
| GCAUCACAAAUAUGCUUCUTT against Tas2r120 | inactive: -0.368 |
| GGGUUUCUUCGUGUCUAUUTT against Pth2r | inactive: 1.56 |
| GCCAACCUAGCAACUCAAGTT against Ankrd42 | inactive: -1.1 |
| GCUGUGCCCUAAAGACUGGTT against Clec2m | active: 2.27 |
| GGAAUCAAACUGGAUUGAUTT against Pi4k2b | active: 2.01 |
| GGCUAUCUAAUCUUCCCGGTT against Ints9 | inactive: -0.388 |
| CCGAAGAUGUUCCUCGGAATT against Rpl6 | inactive: 0.162 |
| GGCACCAUCUAUUAUUUUCTT against Psmc3 | active: -2.45 |
| GGAGGACAUGGACACAGUCTT against Slc39a7 | inactive: -0.805 |
| GCUUCCCUGCCGUGAUGAUTT against Git1 | inactive: -1.15 |
| GGAAACCUAUUGUAUACAATT against Il33 | inactive: 0.9 |
| GCUGGGUUUACCUUCCUGATT against Olfr601 | inactive: 0.351 |
| AGUCGCCAACCUAUUAUUUTT against Inka1 | inactive: -0.518 |
| GGAACUGUGGUUUUCUACCTT against Rgs8 | inactive: -1.3 |
| GGAAAGAAUAGCAGCGUGGTT against Echs1 | inactive: 1.14 |
| CCUUAAGUUAGCUUUAGUUTT against Pop4 | inactive: 1.01 |

An excerpt of these results, bar-delimited:
Sequence | z-score
GGAAGGAUUCUGGAAACAGTT against 2210409E12Rik | active: -2.1
GGUCAAGAAGAGUAUAGUGTT against Hras | inactive: -1.33
CAUUCGUUGAAGAAAGUGATT against N4bp2 | inactive: -0.92
GGAAGUGAAGAGAUCCUUATT against Olfr148 | inactive: 0.86
GCGGUGGUUAUCCUAGAAATT against Hivep2 | inactive: -1.34
GGAAAGGACAAGAAAAUUUTT against Strn | active: -2.03
GGAGAUCACCUACGACAUGTT against Lgals8 | inactive: 0.446
GGAGGUGAUGAUAAUCAAUTT against Trmt61a | inactive: 0.497
GGGAAUCUUCUUUCAGACCTT against Cphx1 | inactive: 0.149
CGAUAGACCAAAUUUUAUGTT against Trim37 | inactive: 0.032
AGAAUCUUUAAAGGAAGUCTT against Olfr325 | inactive: 0.229
GGGUAUUGAGUUCAAAAUUTT against Dld | inactive: 0.346
GCAUAAUUUCAGUGGCAAATT against Fbxw14 | inactive: 1.13
GGUGCAAAGCACAGAUAUATT against Mob1b | inactive: 0.776
GGGUUUUUGAUGAUGAUUCTT against Htatsf1 | inactive: -0.66
GGAGAUGGAUGAUAUGGAGTT against Ifi30 | inactive: 0.00856
GGAGAAAGCCUUCCAAUUUTT against Kel | inactive: -0.273
GGUUAAAGUCUGUGGAUUUTT against Aff4 | inactive: 1.56
GGGAAAGGAUAAAGAUUUUTT against Hmgcs1 | inactive: -0.396
GGAUAAAAGCAUUUGAGUCTT against Acp1 | inactive: 0.694
GGAUCUGGAGAAGAUGUUCTT against Efhd1 | inactive: -0.512
GGAGGAGCUCCAUUUAUGCTT against Zfp65 | inactive: 0.859
CGAUGAGAUGCGUAUUGAGTT against Card11 | inactive: 0.601
CGGAUCUUAUCAGAACAUGTT against Zfp638 | inactive: 0.201
GGCUGUGAUCUCCUGGCUUTT against Rnft2 | inactive: -1.46
GGAGCAGAUAAUGUACAUATT against Cep112 | active: 2.32
GGAGAAGUAAAACUCGAAGTT against Rwdd2a | inactive: 0.276
GGAUGCCAAUUACUUUCUATT against Chst9 | inactive: 0.475
GGGUUUCUUCGUGUCUAUUTT against Pth2r | inactive: 1.56
GCUGGGUUUACCUUCCUGATT against Olfr601 | inactive: 0.351
GGAACUGUGGUUUUCUACCTT against Rgs8 | inactive: -1.3
